Assay results as given in the supplement of paper PMC8104966.
The other results are listed elsewhere or left out. Single values are uncertain here, since repeats match poorly.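 Fusion between ACE2-bearing and full-length-spike-bearing U2OS cells was measured by imaging as the percentage of nuclei with both cell types' fluorescent markers. An inhibitory hit is a non-toxic compound whose fusion z-score is below -3, more than three standard deviations beneath the plate's DMSO wells.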

system: U2OS ACE2 x SARS-CoV-2 spike co-culture; assay: cell-cell fusion (fraction fused) z-score vs plate DMSO control; higher = more fusion; details: 30 µM; 5 h; toxicity class: non-toxic, passed QC

| Compound | cell-cell fusion (z-score) |
| --- | --- |
| CC(C)n1c(/C=C/[C@@H](O)C[C@@H](O)CC(=O)[O-])c(-c2ccc(F)cc2)c2ccccc21.[Na+] [Fluvastatin sodium salt] | inactive: -0.0474 |
| COc1ccccc1N1CCN(CC(O)COc2cccc3ccccc23)CC1 (stereo not drawn) | inactive: -0.3 |
| CC1CC(OC(=O)c2ccccc2O)CC(C)(C)C1 (stereo not drawn) | inactive: 3.69 |
| C=C1CCC2C(CC2(C)C)C(=O)CCC1O (stereo not drawn) | inactive: 1.28 |
| COc1ccc2c(c1O)-c1cccc3c1[C@@H](C2)N(C)CC3.Cl [R(-)-Apocodeine hydrochloride] | inactive: 2.6 |
| C[C@H](CC(=O)C1OC1(C)C)[C@H]1C(=O)C[C@@]2(C)C3=CCC4C(C)(C)[C@@H](O[C@@H]5OC[C@@H](O)[C@H](O)[C@H]5O)CC[C@@]45C[C@@]35[C@@H](O)C[C@]12C (stereo partly drawn) | inactive: 0.852 |
| O=C([O-])C1=C(CSc2nnnn2CS(=O)(=O)[O-])CS[C@@H]2C(NC(=O)[C@H](O)c3ccccc3)C(=O)N12.[Na+].[Na+] (stereo partly drawn) | inactive: 2.92 |
| CCC(=O)N1CCN(c2ccc(-n3c(=O)ccc4cnc5ccc(-c6cnc7ccccc7c6)cc5c43)cc2C(F)(F)F)CC1 [Torin 1] | inactive: 1.59 |
| N[C@@H]1CONC1=O [D-Cycloserine] | inactive: 3.5 |
| CNC[C@H](O)c1ccc(O)c(O)c1.Cl [Epinephrine HCl] | inactive: -0.402 |
| CC/C=C\C/C=C\C/C=C\C/C=C\C/C=C\C/C=C\CCC(=O)O | inactive: 3.85 |
| CCOC(=O)N1CC\C(CC1)=C1\c2ccc(Cl)cc2CCc2cccnc12 [Loratadine] | inactive: 1.81 |
| C=C1C2CC[C@@]3(C)[C@H](c4ccoc4)OC(=O)C[C@]13O[C@H]1CCC(C)(C)[C@H](C(OC(C)=O)C(=O)OC)[C@@]21C (stereo partly drawn) | inactive: 2.67 |
| C/C1=C/CC(C)(C)/C=C/C/C(C)=C/CC1 [HUMULENE (alpha)] | inactive: 1.97 |
| O=c1cc(-c2cc(O)c(O)c(O)c2)oc2cc(O)cc(O)c12 | inactive: 1.73 |
| Cn1c(=O)n(-c2ccc(C(C)(C)C#N)cc2)c2c3cc(-c4cnc5ccccc5c4)ccc3ncc21 | inactive: 0.753 |
| CNS(=O)(=O)CCc1ccc2[nH]cc(C3CCN(C)CC3)c2c1.Cl [Naratriptan] | inactive: 2.05 |
| CC(C)=CCC/C(C)=C/CC/C(C)=C/CSc1ccccc1C(=O)O [Farnesyl Thiosalicylic Acid] | inactive: 2.1 |
| COC1=CC(C)[C@@H]2C[C@H]3OC(=O)C[C@H]4C(C)=C(OC)C(=O)C([C@@]34C)[C@@]2(C)C1=O (stereo partly drawn) | inactive: 1.83 |
| CNC(=O)Oc1ccccc1OC(C)C | inactive: 2.01 |
| CN(C)c1ccc2nc3ccc(N(C)C)cc3[s+]c2c1.O.[Cl-] | inactive: 4.26 |
| CS(=O)(=O)Nc1ccc([N+](=O)[O-])cc1Oc1ccccc1 [Nimesulide] | inactive: 1.86 |
| CCC1=C(C)CN(C(=O)NCCc2ccc(S(=O)(=O)NC(=O)N[C@H]3CC[C@H](C)CC3)cc2)C1=O | inactive: 1.33 |

Looked up above:
For cell-cell fusion (z-score), O=c1cc(-c2cc(O)c(O)c(O)c2)oc2cc(O)cc(O)c12 reads inactive: 1.73
For cell-cell fusion (z-score), C=C1CCC2C(CC2(C)C)C(=O)CCC1O (stereo not drawn) reads inactive: 1.28
For cell-cell fusion (z-score), CS(=O)(=O)Nc1ccc([N+](=O)[O-])cc1Oc1ccccc1 [Nimesulide] reads inactive: 1.86

Continued:

| Compound | cell-cell fusion (z-score) |
| --- | --- |
| OC[C@@H](O)[C@H]1O[C@@H]2O[C@H](C(Cl)(Cl)Cl)O[C@@H]2[C@H]1O | inactive: -0.109 |
| NS(=O)(=O)C#Cc1ccccc1 [Pifithrin-mu] | inactive: 0.553 |
| CC(NC(C)(C)C)C(=O)c1cccc(Cl)c1.Cl (stereo not drawn) [Bupropion hydrochloride] | inactive: 1.71 |
| CN(C/C=C/c1ccccc1)Cc1cccc2ccccc12.Cl | inactive: 4.96 |
| COc1cc(O)c2c(c1)C(=O)c1cc(C)cc(O)c1C2=O | inactive: 1.72 |
| c1cnc2c(c1)ccc1cccnc12 [1,10-Phenanthroline monohydrate] | inactive: -0.103 |
| CN(C)C/C=C/C(=O)Nc1cc2c(Nc3ccc(F)c(Cl)c3)ncnc2cc1O[C@H]1CCOC1 [Afatinib (BIBW2992)] | inactive: 0.887 |
| O=c1ccc2ccc(O)c(O)c2o1 [Daphnetin] | inactive: 1.5 |
| C#CC(N)CCC(=O)O (stereo not drawn) [gamma-Acetylinic GABA] | inactive: 0.47 |
| CNCCC(Oc1ccc(C(F)(F)F)cc1)c1ccccc1 (stereo not drawn) [Fluoxetine] | inactive: 0.0772 |
| COc1ccc(Cl)cc1C(=O)NCCc1ccc(S(=O)(=O)NC(=O)NC2CCCCC2)cc1 [Glyburide] | inactive: 3.84 |
| CO[C@@]1(NC(=O)Cc2cccs2)C(=O)N2C(C(=O)[O-])=C(COC(N)=O)CS[C@@H]21.[Na+] | inactive: 2.2 |
| Cc1c(-c2ccc(-c3ccccc3F)cc2)nc2ccc(F)cc2c1C(=O)[O-].[Na+] [Brequinar sodium salt hydrate] | inactive: -0.385 |
| Cc1cc2c(F)c(Oc3ncnn4cc(OC[C@@H](C)O)c(C)c34)ccc2[nH]1 | inactive: -2.74 |
| C[C@H]1COc2c(N3CCN(C)CC3)c(F)cc3c(=O)c(C(=O)O)cn1c23 | inactive: 2.8 |
| CC(=O)Oc1cc(OC(C)=O)c2c(c1)O[C@H](c1ccc(OC(C)=O)c(OC(C)=O)c1)[C@H](OC(C)=O)C2 | inactive: -0.149 |
| Nc1nnc(-c2cccc(Cl)c2Cl)c(N)n1 [Lamotrigine] | inactive: 2.18 |
| COc1cccc(OC)c1C(=O)N[C@@H]1C(=O)N2[C@@H]1SC(C)(C)[C@@H]2C(=O)[O-].[Na+] | inactive: 0.269 |
| Cl.Clc1ccc(Cn2c(CN3CCCC3)nc3ccccc32)cc1 | inactive: 2.77 |
| O=C(NC[C@H]1CN(c2ccc(N3CCOCC3=O)cc2)C(=O)O1)c1ccc(Cl)s1 | inactive: 1.59 |
| Cl.O=C(O)C1=CCCNC1 [Guvacine hydrochloride] | inactive: 3.65 |
| CC(=O)O[C@H]1CC[C@]2(C)C3=CC(=O)[C@@]4(C)C(C[C@@H]5OC6(OCC(C)CC6Br)[C@@H](C)[C@@H]54)C3CC[C@H]2C1 (stereo partly drawn) [3beta-ACETOXY-23-BROMO-ISOALLOSPIROST-9 (11)-ENE-12-ONE] | inactive: 2.92 |
| Nc1nc2ccc(OC(F)(F)F)cc2s1 [Riluzole] | inactive: 1.61 |

| Compound | cell-cell fusion (z-score) |
| --- | --- |
| CCCCN1CCCC[C@H]1C(=O)Nc1c(C)cccc1C.Cl [Levobupivacaine HCl] | inactive: 0.27 |
| CCCCN1CCCC[C@H]1C(=O)Nc1c(C)cccc1C.Cl [Levobupivacaine] | inactive: 2.09 |
| O=C(O)/C=C\C(=O)O.c1cnc(N2CCN(Cc3ccc4c(c3)OCO4)CC2)nc1 [Piribedil maleate] | inactive: 1.47 |
| CC1(C)CNc2cc(NC(=O)c3cccnc3NCc3ccncc3)ccc21.O=P(O)(O)O.O=P(O)(O)O [Motesanib Diphosphate (AMG-706)] | inactive: 2.37 |
| CC1(C)CNc2cc(NC(=O)c3cccnc3NCc3ccncc3)ccc21.O=P(O)(O)O.O=P(O)(O)O [Motesanib Diphosphate] | inactive: 2.99 |
| CCCCCCN(CCCCCC)C(=O)Cc1c(-c2ccc(F)cc2)[nH]c2ccccc12 [N,N-Dihexyl-2-(4-fluorophenyl)indole-3-acetamide] | inactive: 3.18 |
| Cl.O=C(c1ccc(OCCN2CCCCC2)cc1)c1c(-c2ccc(O)cc2)sc2cc(O)ccc12 [Raloxifene hydrochloride] | inactive: 4.68 |
| Cl.O=C(c1ccc(OCCN2CCCCC2)cc1)c1c(-c2ccc(O)cc2)sc2cc(O)ccc12 | inactive: 5.37 |
| N#C/C(=C\c1ccc(O)c(O)c1)C(=O)NCc1ccccc1 [AG-490 (Tyrphostin B42)] | inactive: 1.04 |
| N[C@@H](Cc1ccc(F)cc1)C(=O)O [p-Fluoro-L-phenylalanine] | inactive: 4.35 |
| OB1OCc2cc(F)ccc21 [Tavaborole] | inactive: 1.62 |
| COc1ccc(/C=C/c2cc(O)cc(O)c2)cc1 | inactive: 1.5 |
| O=C(Nc1ccncc1)c1cc([N+](=O)[O-])ccc1Cl | inactive: 0.596 |
| COC(=O)C1=C(C)NC(C)=C(C(=O)OC(C)C)C1c1cccc2nonc12 (stereo not drawn) [Isradipine] | inactive: 3.76 |
| Oc1c(I)cc(I)c2cccnc12 | inactive: 0.141 |
| O=c1ccc2cc(O)c(O)cc2o1 | inactive: 2.58 |
| NCCCNCCSP(=O)(O)O | inactive: 2.11 |
| NCCCNCCSP(=O)(O)O [Amifostine] | inactive: 1.67 |
| Cc1cc2c(C(C)C)c(O)c(O)c(C=O)c2c(O)c1-c1c(C)cc2c(C(C)C)c(O)c(O)c(C=O)c2c1O [Gossypol] | active: -4.28 |
| CC(N)[C@H](O)c1ccc(O)c(O)c1 (single isomer, unassigned; (-)) [(-)-alpha-Methylnorepinephrine] | inactive: -1.4 |
| CO[C@H]1CC(O[C@@H]2/C(C)=C/C[C@@H]3C[C@@H](C[C@]4(C=C[C@H](C)[C@@H](C5CCCCC5)O4)O3)OC(=O)[C@@H]3C=C(C)[C@@H](O)[C@H]4OC/C(=C\C=C\[C@@H]2C)[C@]43O)O[C@@H](C)C1O[C@H]1C[C@H](OC)[C@@H](O)[C@H](C)O1 (stereo partly drawn) | inactive: 2.66 |
| CN1C[C@H](C(=O)N[C@]2(C)O[C@@]3(O)C4CCCN4C(=O)[C@H](Cc4ccccc4)N3C2=O)C=C2c3cccc4[nH]cc(c34)C[C@H]21.O=C(O)[C@H](O)[C@@H](O)C(=O)O (stereo partly drawn) | inactive: 3.32 |
